Data taken from PubChem BioAssay AID540256 (National Center for Advancing Translational Sciences (NCATS), 2011).
In all, about 300,000 compounds went through this assay and about 3,700 (1.2%) were called active. This list was built around the results that the source calls inconclusive (neither active nor inactive); the mix of calls is not that of the screen. Calls follow the shape of the full dose curve; tested in HEK293 cells. Potencies of inconclusive entries are doubtful fits and often do not repeat.
% is scaled to controls: 0 for no effect and ±100 for the full control effect; potency is read from the fitted curve at half-maximal effect.

Experiment: qHTS for Inhibitors of binding or entry into cells for Lassa Virus; also: nearly all actives have a fitted effect of over 50% in size
Details: Lassa virus pseudotype entry inhibition, cell reporter; activity change, negative = inhibition: at 37.9 µM (top of the series) unless noted
In the case of `NNC(=O)CN1CCCc2ccccc21`, the “activity change, negative = inhibition” value is reported as inactive: 11%.
With `CCSc1nnc(Nc2ccccc2)s1` the “activity change, negative = inhibition” value was inactive: 0.47%.
In the case of `CCCCC1C(C#N)=C(C)NC2=C1C(=O)CC(C)(C)C2` (stereo not given), the Potency is reported as inconclusive: 35.5 µM [inhibitor, single point].
With `CC(Oc1ccccc1Cl)C(=O)N1CCOCC1` (stereo not given) the Potency was inconclusive: 28.2 µM [activator, single point].
For `C=CCN(C(=O)c1csnn1)C(C(=O)NC(C)(C)C)c1ccncc1` (stereo not given), the “activity change, negative = inhibition” value was inactive: 9.98% [at 46.1 µM].
With `NS(=O)(=O)c1ccc(CCNC(=O)c2cc3ccccc3s2)cc1` the Potency was inconclusive: 0.316 µM [inhibitor, full curve, poor fit].
For `Cc1nn(Cc2ccccc2)c(C)c1NC(=O)CCCn1nc(C)c([N+](=O)[O-])c1C`, the Potency was inconclusive: 1.41 µM [inhibitor, partial curve, poor fit].
With `CC(C)(C)N1C(=O)c2ccc(C(=O)Nc3nccs3)cc2C1=O` the Potency was inconclusive: 1.78 µM [activator, partial curve, poor fit].
With `c1ccc(Oc2ccc(-c3ccnc4ncnn34)cc2)cc1` the Potency was inconclusive: 8.91 µM [inhibitor, partial curve, poor fit].
For `COc1ccc(C2OC(=O)CC2C(=O)NCc2ccc(Cl)cc2)cc1OC` (stereo not given), the Potency was inconclusive: 1.78 µM [inhibitor, partial curve, poor fit].
In the case of `COC(=O)Cc1ccc2oc(-c3cccnc3)nc2c1`, the “activity change, negative = inhibition” value is reported as inactive: 6.3%.
For `CCc1ccccc1NC(=O)Nc1cc(C(=O)NCc2ccc(C(C)C)cc2)ccc1N1CCCC1`, the Potency was inconclusive: 35.5 µM [activator, single point].
For `Cc1ccc([N+](=O)[O-])cc1S(=O)(=O)NCCc1c(C)[nH]c2c(C)cccc12`, the “activity change, negative = inhibition” value was inactive: -25%.
For `CCOc1ccc(C(=O)NCC(c2cccs2)N(C)C)cc1` (stereo not given), the “activity change, negative = inhibition” value was inactive: 16.1%.
In the case of `Cc1c(NC(=O)COC(=O)c2cccn2C)c(=O)n(-c2ccccc2)n1C`, the Potency is reported as inconclusive: 5.62 µM [inhibitor, single point].
With `CCOc1cc2[nH]c(=O)n(CCCN3CCCC3=O)c(=O)c2cc1OCC` the Potency was inconclusive: 32.6 µM [activator, partial curve, poor fit].
With `O=C(CN1CCN(Cc2ccccc2)CC1)NCc1ccccc1Cl` the “activity change, negative = inhibition” value was inactive: -29.4% [at 46.1 µM].
With `O=C(Nc1ccccc1N1CCOCC1)c1ccc(OCc2cscn2)cc1` the Potency was inconclusive: 35.5 µM [inhibitor, single point].
For `CC(C)(C)n1nnnc1SCC(=O)Nc1nn(-c2ccccc2)nc1C(N)=O`, the Potency was inconclusive: 4.47 µM [inhibitor, single point].
For `COc1ccc(NS(=O)(=O)c2cc(NC(=O)C3CCCO3)ccc2N2CCCCC2)cc1` (stereo not given), the Potency was inconclusive: 31.6 µM [inhibitor, single point].
With `CCOc1ccc2nc(-c3ccccc3)[nH]c2c1` the Potency was inconclusive: 8.2 µM [inhibitor, partial curve, poor fit].
With `COc1ccc(S(=O)(=O)c2c(Nc3ccc(C)cc3)sc(C(=O)c3ccc(C)cc3)c2N)cc1` the Potency was inconclusive: 2.24 µM [inhibitor, partial curve, poor fit].
With `Cc1cc(=O)n2[nH]c(NCc3ccc(F)cc3)nc2n1` the Potency was inconclusive: 35.5 µM [activator, single point].
For `Cc1ccc(N(CC(=O)N/N=C/c2ccc(OC3CSC3)cc2)S(=O)(=O)c2ccccc2)c(C)c1`, the Potency was inconclusive: 6.31 µM [inhibitor, full curve].
For `OCCN1CCN(c2nc(-c3ccccc3)nc3c2oc2ccccc23)CC1`, the Potency was inconclusive: 35.5 µM [inhibitor, single point].
With `COc1cccc(/C(C)=N/NC(=O)c2ccc(N(C)C)cc2)c1` the Potency was inconclusive: 0.794 µM [inhibitor, single point].
In the case of `Nc1ccc(-c2nc3ccc(-c4nc5ccc(N)cc5[nH]4)cc3[nH]2)cc1`, the Potency is reported as inconclusive: 14.6 µM [inhibitor, partial curve, poor fit].
With `CCN(CC)C(=O)Oc1ccc2oc(=O)cc(-c3cc4cccc(OC)c4o3)c2c1` the Potency was inconclusive: 5.62 µM [inhibitor, full curve, poor fit].
For `CCCC(=O)NC(=S)Nc1ccc(Cl)cn1`, the Potency was inconclusive: 20.6 µM [activator, single point].
For `CCN(CC)C(=O)c1sc2nc(N3CCOCC3)c3c(c2c1N)CCCC3`, the “activity change, negative = inhibition” value was inactive: -9.62%.
With `C=CCn1c(SCC(=O)N2CCc3ccccc3C2)nc2ccccc2c1=O` the Potency was inconclusive: 35.5 µM [inhibitor, single point].
In the case of `O=C(c1ccccc1)c1ccc2ccccc2n1`, the Potency is reported as inconclusive: 0.103 µM [inhibitor, full curve, poor fit].
For `c1ccc(Cn2nc(-c3ccccc3)nc2-c2ccccc2)cc1`, the Potency was inconclusive: 17.8 µM [activator, partial curve, poor fit].
In the case of `CC1Cc2cc(S(=O)(=O)N3CCC(C(=O)N4CCN(c5ccccc5F)CC4)CC3)ccc2N1C(=O)C1CC1` (stereo not given), the Potency is reported as inconclusive: 7.94 µM [inhibitor, partial curve, poor fit].
With `CCCCNC(=O)N(C)c1nncnc1C(=O)NC` the “activity change, negative = inhibition” value was inactive: 27.3%.
In the case of `CC1CCCN(c2nc(NCc3ccco3)nc(N)c2[N+](=O)[O-])C1` (stereo not given), the Potency is reported as inconclusive: 29.1 µM [inhibitor, single point].
With `O=C(NCCCN1CCCC1)c1cc2c(Cl)nc3ccccc3c2s1` the Potency was inconclusive: 35.5 µM [inhibitor, single point].
For `COc1ccc(NC(=O)CSc2ccc3nnc(CCNC(=O)c4ccccc4)n3n2)cc1OC`, the “activity change, negative = inhibition” value was inactive: 7.82%.
In the case of `CCc1nnc(SCC(=O)N(C)c2ccccc2)c2cc3sccc3n12`, the “activity change, negative = inhibition” value is reported as inactive: -5.65% [at 46.1 µM].
With `Cc1cc(C(F)F)n2ncc(C(=O)NCc3ccc(F)cc3)c2n1` the Potency was inconclusive: 32.6 µM [inhibitor, partial curve, poor fit].
For `Cc1cc(NC(=O)CCC(=O)N(Cc2ccc(F)cc2)C(C(=O)NC2CCCC2)c2ccco2)no1` (stereo not given), the “activity change, negative = inhibition” value was inactive: -9.31%.
For `CCOC(=O)c1cccc(NC(=O)CCc2c(C)nc3cc(-c4ccc(Cl)cc4)nn3c2C)c1`, the Potency was inconclusive: 3.16 µM [inhibitor, partial curve, poor fit].
With `CCOc1ccccc1Nc1nc(-c2cccc(Cl)c2)c2c(n1)-c1ccccc1OC2` the Potency was inconclusive: 35.5 µM [inhibitor, single point].
For `N#C/C(=C/c1ccc(O)c(O)c1)C(=O)NCc1ccc(Cl)cc1`, the Potency was inconclusive: 14.1 µM [inhibitor, partial curve, poor fit].
In the case of `Nc1ccc(Cn2ccc3c4c(N)nc(N)nc4ccc32)cc1`, the Potency is reported as inconclusive: 0.126 µM [inhibitor, full curve, poor fit].
In the case of `Cc1ccc(C)c(N2N=C(C(=O)Nc3ccccc3N3CCCC3)CCC2=O)c1`, the Potency is reported as inconclusive: 12.6 µM [inhibitor, single point].
With `Cc1ccccc1-c1nc(CN2CCC(C(=O)NCCCN3CCOCC3)CC2)c(C)o1` the Potency was inconclusive: 20.6 µM [inhibitor, single point].
In the case of `O=c1cc(Nc2ccc3c(c2)OCCO3)[nH]c(=O)n1C1CCCCC1`, the “activity change, negative = inhibition” value is reported as inactive: -12%.
For `Cc1cc(C)c(C#N)c(SCC(=O)OC2CCCCC2)n1`, the Potency was inconclusive: 29.1 µM [activator, single point].
With `COc1ccc(N/C=C\C(=O)c2ccc3c(c2)OCO3)cc1` the Potency was inconclusive: 8.91 µM [inhibitor, partial curve, poor fit].
For `CC(=O)N1N=C(c2cccs2)CC1c1cccs1` (stereo not given), the “activity change, negative = inhibition” value was inactive: -0.0395% [at 46.1 µM].
In the case of `COc1ccccc1C(=O)COC(=O)CNS(=O)(=O)c1ccc(C)cc1`, the “activity change, negative = inhibition” value is reported as inactive: 24.7%.
For `COc1ccc(C(=O)Nc2ccc(Cl)cc2C(=O)NCc2ccco2)cc1OC`, the Potency was inconclusive: 20.6 µM [inhibitor, single point].
In the case of `CN(C)c1ccc(/C=C/C(=O)c2cccc(Br)c2)cc1`, the “activity change, negative = inhibition” value is reported as inactive: 1.05%.
For `O=C(NCc1ccco1)c1ccc2c(c1)CCO2`, the “activity change, negative = inhibition” value was inactive: 13%.
With `COc1cccc(C(=O)c2sc(NC(C)C)nc2N)c1` the “activity change, negative = inhibition” value was inactive: 8.85%.
In the case of `COc1cc2c(cc1NC(=O)C(C)NCc1ccccc1)oc1ccccc12` (stereo not given), the “activity change, negative = inhibition” value is reported as inactive: 19.7%.
For `Cc1csc(NC(=O)C2CCCCC2)n1`, the Potency was inconclusive: 11.2 µM [activator, partial curve, poor fit].
With `CC(=O)Nc1ccc(NC(=O)CN2C(=O)NC3(CCCCCCC3)C2=O)cc1` the Potency was inconclusive: 1.26 µM [inhibitor, single point].
For `O=C(c1cc(C2CC2)on1)N1CCCC(N2CCN(c3cccc(C(F)(F)F)c3)CC2)C1` (stereo not given), the Potency was inconclusive: 12.6 µM [inhibitor, partial curve, poor fit].
For `CC(C)OC(=O)CSc1nnnn1-c1ccc2c(c1)OCCO2`, the “activity change, negative = inhibition” value was inactive: 22.3%.
With `CS(=O)(=O)c1ccccc1C(=O)N1CCN(S(=O)(=O)c2ccc(C3CCCCC3)cc2)CC1` the Potency was inconclusive: 35.5 µM [inhibitor, single point].
In the case of `COc1ccccc1/C=C/C(=O)NC(=S)NCC1CCCO1` (stereo not given), the Potency is reported as inconclusive: 20 µM [inhibitor, partial curve, poor fit].
In the case of `CC1=C(C(=O)Nc2cccnc2)C(c2cccc(O)c2)n2nc(SCc3ccccc3)nc2N1` (stereo not given), the “activity change, negative = inhibition” value is reported as inactive: -1.22% [at 46.1 µM].
For `CCn1c(C)nc2cc(C(=O)OCCC(F)(F)F)ccc21`, the “activity change, negative = inhibition” value was inactive: 25.1%.
In the case of `CN1CCCN(S(=O)(=O)c2ccccc2)c2nc3ccccc3nc21`, the “activity change, negative = inhibition” value is reported as inactive: -21.6%.
With `Cc1ccc(NC(=O)Nc2cccc([N+](=O)[O-])c2)nc1` the “activity change, negative = inhibition” value was inactive: -0.313%.
With `CCN(CC)S(=O)(=O)c1ccc(-c2nnc(SCC(N)=O)n2CC)cc1` the Potency was inconclusive: 35.5 µM [activator, partial curve, poor fit].
With `COc1ccc2oc(C(=O)NC(C)(C)C)c(C)c2c1` the “activity change, negative = inhibition” value was inactive: -0.479% [at 46.1 µM].
With `NS(=O)(=O)c1ccc(NC(=S)NC(=O)c2ccc(Br)o2)cc1` the Potency was inconclusive: 3.16 µM [activator, full curve, poor fit].
